Broadly, the AC50 is the concentration at which the activity in the assay is half-maximal.

The other results are listed elsewhere or left out. These are further read-outs of the screen, such as a control signal, another cell line or another target. No call is given for them. The list favours compounds with an active or inconclusive main result. Words in brackets tell the shape of the fitted curve; partial curves, single points and poor fits give uncertain potencies.

The assay is described as follows: qHTS assay for small molecule antagonists of peroxisome proliferator-activated receptor gamma signaling (AID 588537). Conditions: HEK293 PPARg-UAS-bla, beta-lactamase ratio, antagonist mode; measured here: W460 blue channel. In a few lines:
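Compounds are tested as concentration series for inhibition of rosiglitazone-driven (50 nM) reporter expression in GeneBLAzer PPAR-gamma-UAS-bla HEK293 cells. After 16 h at 37 C, CCF4 substrate is added for 2 h at room temperature and blue/green fluorescence is measured.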
A general note: In qHTS, concentration-response curves come from the screen itself.
For the compound `CCC(C)(C)C`, the concentration at half-maximal activity (AC50) was 0.0282 µM [falling, full curve, poor fit].

`CCO[Si](CCCN)(OCC)OCC`: the AC50 is 50.1 µM [rising, single point]. On to `Clc1cc(Cl)c(Cl)cc1Cl`, for which the AC50 is 44.7 µM [rising, partial curve].

In the case of `Nc1ccc(-c2ccc(N)c(O)c2)cc1O`, the AC50 is 35.5 µM [falling, partial curve, poor fit]. For `CCCCOCC(C)O` (stereo not given) the value was 2.51 µM [falling, full curve, poor fit]. In the case of `O=[N+]([O-])c1ccccc1CCO`, the AC50 was 70.8 µM [rising, single point]. The result for `CCC(=O)OCCc1ccccc1` reads 0.00126 µM [falling, full curve, poor fit].

Take `Nc1cc(C(=O)O)c(O)c(S(=O)(=O)O)c1`: the AC50 is 50.1 µM [rising, single point]. For `C=C(C)C(=O)OCC(C)C` the value was 50.1 µM [falling, single point]. In the case of `C[C@]12C=CC(=O)C=C1CC[C@@H]1[C@@H]2C(=O)C[C@@]2(C)[C@H]1CC[C@]2(O)C(=O)CO`, the AC50 is 50.1 µM [rising, single point].

`CCCCC/C=C\C/C=C\CCCCCCCC(=O)O`: the AC50 was 50.1 µM [rising, single point]. The result for `CC1(C)CC(N)CC(C)(CN)C1` (stereo not given) reads 0.00126 µM [falling, full curve, poor fit]; that for `CCOc1ccccc1N`, 70.8 µM [rising, single point]; that for `C=Cc1ccc(C=C)cc1`, 63.1 µM [rising, single point].

As to `CCCCCCCCCCO`, the AC50 was 0.0398 µM [falling, full curve, poor fit].

On to `CC(C)c1ccc(C(C)C)cc1`, for which the AC50 is 0.00178 µM [falling, full curve, poor fit].

Turning to `CN(CCO)CC(O)Cn1cnc2c1c(=O)n(C)c(=O)n2C` (stereo not given) (tested in a mixture with another compound), the AC50 is 0.00158 µM [falling, full curve, poor fit]. In the case of `CCOCCOCCOC(C)=O`, the AC50 was 0.0501 µM [falling, full curve, poor fit]. In the case of `Cc1ccc(N=Nc2c(O)ccc3ccccc23)c([N+](=O)[O-])c1`, the AC50 was 28.2 µM [falling, full curve, poor fit].

With `CCCCC(CC)COC(=O)CCCCC(=O)OCC(CC)CCCC` (stereo not given), the concentration at half-maximal activity (AC50) was 0.00447 µM [falling, full curve, poor fit]. The result for `CN(C)c1cccc(O)c1` reads 50.1 µM [rising, single point]; that for `C[C@@H]1O[C@@H](O[C@@H]2[C@@H](O)[C@H](OCCc3ccc(O)c(O)c3)O[C@H](CO[C@@H]3O[C@H](CO)[C@@H](O)[C@H](O)[C@H]3O)[C@H]2OC(=O)/C=C/c2ccc(O)c(O)c2)[C@H](O)[C@H](O)[C@H]1O`, 50.1 µM [rising, single point]. The result for `c1ccc2c(c1)ccc1ncccc12` reads 63.1 µM [rising, single point]; that for `CCCCCCCOC(=O)c1ccccc1C(=O)OCCCCCCC`, 0.00112 µM [falling, full curve, poor fit]; that for `CC(=O)N(CCN(C(C)=O)C(C)=O)C(C)=O`, 0.00355 µM [falling, full curve, poor fit]. Consider `O=c1[nH]c(=O)n([C@H]2C[C@H](O)[C@@H](CO)O2)cc1Br`, for which the AC50 was 63.1 µM [rising, single point].

`O=C1NS(=O)(=O)c2ccccc21`: the AC50 is 0.00631 µM [falling, full curve, poor fit].

With `CC(=O)CC(=O)Nc1ccccc1C`, the AC50 is 0.0112 µM [rising, full curve, poor fit]. For `CCCCCCCCCCCCOCC1CO1` (stereo not given) the value was 63.1 µM [rising, single point].

For the compound `O=C(O)CNC(=O)c1ccc([N+](=O)[O-])cc1`, the AC50 is 70.8 µM [rising, single point]. For `CC(=O)Nc1ccc(N=Nc2cc(C)ccc2O)cc1` the value was 28.2 µM [falling, partial curve, poor fit]; for `CC(=O)Nc1cccc(O)c1`, 44.7 µM [rising, single point]; for `CC(=O)c1nccs1`, 63.1 µM [rising, single point]. The result for `COCC(=O)O` reads 0.0355 µM [falling, full curve, poor fit]. With `CCCC(=O)OC(=O)CCC`, the AC50 is 70.8 µM [rising, single point].

The values above are taken from PubChem BioAssay (NCATS).
